The values below come from PubChem BioAssay AID493014 (National Center for Advancing Translational Sciences (NCATS), 2011).

The structures appear in SMILES notation. This is one part of the list. The main result of the screen is listed elsewhere. These columns were measured beside it and carry no call. The list favours compounds with an active or inconclusive main result. The note in brackets gives the kind of curve behind each potency; many fits are weak.

A word on the AC50: it is the midpoint of the concentration-response curve, whichever way the signal moves.

This experiment can be described thus: qHTS Assay to Find Inhibitors of Chronic Active B-Cell Receptor Signaling. As to conditions: ABC-DLBCL IkBa-CBG/CBR reporter, luminescence ratio (green luciferase fused to IkBa over red control in TMD8 lymphoma cells), 4 h. A digest of the protocol: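 Cell line TMD8 (human ABC DLBCL), stably expressing tet-inducible CBG68-IkBa fusion and CBR; IMDM/0.5% FBS; cpd up to 46 uM; dox induction, 4 h, 37C/5% CO2; dual luminescence; green/red ratio; MG132 control.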

Setting [1] is: measured here: CBR red luminescence, cell number.
The mark [2] stands for this setting: measured here: IkBa-CBG green luminescence.

With `CCOC(=O)c1cc(-c2csc(-c3cccc(Cl)c3)n2)on1`, the AC50 under setting [1] is 3.16 µM [falling, partial curve, poor fit]. Regarding `C=CCN=C1N[C@@H](c2cccc(C(F)(F)F)c2)C(C(=O)OC)=C(C)N1CC`, under setting [1], the AC50 is 35.5 µM [falling, single point]. Turning to `O=C(O)CC/C(=N/NC(=O)c1cccs1)c1ccccc1`, under setting [1], the concentration at half-maximal activity (AC50) was 14.6 µM [falling, partial curve, poor fit]. Take `CCN(CC)CCN1C(=O)C(O)=C(C(=O)c2cccs2)C1c1ccccn1` (configuration not stated): the AC50 under setting [1] is 29.1 µM [falling, single point]. Still for that read-out and setting: in the case of `O=C(COc1ccccc1)N(Cc1ccco1)C1CCS(=O)(=O)C1` (configuration not stated) it was 3.98 µM [falling, partial curve, poor fit]; in that of `O=S(=O)(Nc1cccc(S(=O)(=O)N2CCOCC2)c1)c1ccc2c(c1)OCCO2`, 0.2 µM [falling, full curve, poor fit]. Take `Fc1ccc(C(Nc2ccccn2)c2c[nH]c3ccccc23)cc1` (configuration not stated): the AC50 under setting [1] is 8.91 µM [falling, partial curve, poor fit]. Still for that read-out and setting: in the case of `COc1cc(OC)cc(-c2nnc(SCc3cccc(C(=O)O)c3)o2)c1` it was 8.2 µM [falling, partial curve]. On to `Cc1ccc(SCc2nc3ccccc3[nH]2)cc1`, for which, under setting [1], the concentration at half-maximal activity (AC50) was 12.6 µM [falling, single point]. On the same count and under the same terms, in the case of `O=C(CCC1N=C2c3ccccc3N=C(SCc3ccc(F)cc3)N2C1=O)NCc1cccs1` (configuration not stated) it was 25.1 µM [falling, single point]. For the compound `COc1ccc(/C=C2\CCC(C3CCCC3)C2=O)cc1Cn1nc(C)cc1C` (configuration not stated), the AC50 under setting [1] is 0.517 µM [rising, full curve, poor fit].

Consider `O=C(Nc1cccc2ccccc12)c1ccc([N+](=O)[O-])cc1`, for which the AC50 under setting [1] is 1 µM [falling, full curve]. For the compound `CCN(C(=O)COC(=O)c1ccc([N+](=O)[O-])o1)c1cccc2ccccc12`, the AC50 under setting [1] is 3.66 µM [falling, partial curve, poor fit].

For `CN(C)S(=O)(=O)c1ccc(Cl)c(NC(=O)CSc2nnnn2-c2ccc(O)cc2)c1`, under setting [1], the half-maximal activity concentration (AC50) was 15.8 µM [falling, partial curve, poor fit]. The same measure, in the same setting: the figure for `Cc1ccc(C)n1-c1sc2c(c1C#N)CCC(C)C2` (configuration not stated) is 0.164 µM [falling, full curve, poor fit]; for `CSc1c(C#N)c(N)nc2sc(C(=O)c3ccc(Cl)c(Cl)c3)c(N)c12` it is 0.282 µM [falling, full curve, poor fit]; for `O=C(c1ccc(F)cc1)N(C(=O)c1ccc(F)cc1)c1ncccn1` it is 35.5 µM [falling, single point].

As for `CCOC(=O)CC(NS(=O)(=O)c1ccc2[nH]c3c(c2c1)CCCC3)c1ccccc1Cl` (configuration not stated), the half-maximal activity concentration (AC50) under setting [1] is 12.6 µM [falling, partial curve, poor fit].

For `O=C(NCC(c1ccco1)N1CCN(c2ccc(F)cc2)CC1)c1ccco1` (configuration not stated), the AC50 under setting [1] was 25.9 µM [rising, single point]. For the compound `CC(=O)Nc1ccc(OC(=O)c2ccc(Br)c([N+](=O)[O-])c2)cc1`, the concentration at half-maximal activity (AC50) under setting [1] was 7.94 µM [falling, partial curve, poor fit]. Consider `Cn1c(C=O)c(C#Cc2ccccc2)c2ccccc21`, for which the AC50 under setting [1] is 20.6 µM [rising, single point]. Turning to `Fc1ccc(-c2nnc(-c3ccc(Cl)cc3Cl)o2)cc1`, the AC50 under setting [1] is 0.092 µM [rising, full curve, poor fit]. Consider `CCc1ccc(OCc2n[nH]c(=S)n2C(C)CCCC(C)C)cc1` (configuration not stated), for which the AC50 under setting [1] is 35.5 µM [falling, single point]. With `S=C(NCCc1ccc(Cl)cc1)Nc1ccc(Cl)cc1Cl`, the half-maximal activity concentration (AC50) under setting [1] is 0.103 µM [falling, full curve, poor fit].

On to `Cc1onc(-c2ccccc2)c1C(=O)NC(C)c1ccc2c(c1)OCO2` (configuration not stated), for which the half-maximal activity concentration (AC50) under setting [1] was 35.5 µM [falling, single point]. Regarding `O=C1C=C(c2cc3ccccc3o2)C[C@@H](c2ccc(F)cc2)C1`, under setting [1], the AC50 is 16.4 µM [rising, partial curve, poor fit].

Turning to `CCOC(=O)Cc1csc(NC(=O)c2ccc(OC)c(OC)c2)n1`, under setting [1], the AC50 was 5.62 µM [falling, partial curve].

As for `Cc1cc([N+](=O)[O-])ccc1NC(=O)CCC(=O)N1CCCCCC1`, the concentration at half-maximal activity (AC50) under setting [1] is 2.51 µM [rising, full curve, poor fit]. For the compound `CC(C)C(=O)Nc1ccc2c(c1)nc(CCN1CCN(c3ccccc3)CC1)n2C`, under setting [1], the AC50 is 35.5 µM [falling, single point].

In the case of `COc1cc(OC)c(OC)cc1/C=C/c1nc2cc3ccccc3cc2c(=O)n1-c1ccc(Cl)cc1`, the concentration at half-maximal activity (AC50) under setting [1] is 2.51 µM [falling, partial curve]. Same read-out and setting: in the case of `COc1ccc(C)cc1N(CC(=O)Nc1cccnc1)S(=O)(=O)c1ccc(C)cc1` it was 2 µM [falling, full curve, poor fit]; in that of `COC(=O)c1oc2c(c1C)C1(CCC2)SCCS1`, 32.6 µM [rising, single point]; in that of `CC(OC(=O)c1ccccc1CCc1ccccc1)C(N)=O` (configuration not stated), 35.5 µM [falling, single point]. `COc1ccc(C(=O)N2CCN(Cc3ccccc3C)CC2)cc1OC`: under setting [1], the AC50 is 0.92 µM [rising, full curve, poor fit]. `COc1cc(CNCCO)cc(Cl)c1OCc1ccc(Cl)cc1Cl`: the AC50 under setting [1] was 14.1 µM [falling, partial curve, poor fit] and the concentration at half-maximal activity (AC50) under setting [2] is 17.8 µM [rising, single point]. With `COc1ccc(-c2cc(-c3ccccc3)n3ncnc3n2)cc1`, the AC50 under setting [1] was 22.4 µM [falling, single point]. With `CCN(CC)c1ccc(/C=C(\C#N)C(=O)NCc2ccco2)cc1`, the concentration at half-maximal activity (AC50) is, setting by setting: under setting [1], 5.8 µM [rising, full curve, poor fit]; under setting [2], 6.51 µM [falling, partial curve, poor fit]. As to `Cc1ccc(-n2nc(C)c(NC(=O)CCl)c2C)cc1`, the AC50 under setting [1] is 13 µM [falling, partial curve]. As for `Cc1nc(SCC(=O)N2CC(=O)Nc3ccccc32)c2c(C)c(C)sc2n1`, the concentration at half-maximal activity (AC50) under setting [1] was 2 µM [rising, full curve, poor fit]. As for `O=C(NCc1ccccc1)C(c1ccc(F)cc1)N(C(=O)c1csnn1)c1ccccc1` (configuration not stated), the AC50 under setting [1] was 10 µM [falling, partial curve].
